Construct, isoform or probe ends are uncertain for at least one entry. Negatives hold for the conditions tested.
Molecular target: PtrERF9 (His-PtrERF9) (Poncirus trifoliata (L.) Raf.) (UniProt A0ACB8N348)
Assay: EMSA
Settings: EMSA: 5 mM MgCl2, 50 mM KCl, 10 mM EDTA, 2.5% glycerol, 50 ng/uL poly(dI-dC), 0.05% NP-40, 6.5% native PAGE, pH and temperature not stated, recombinant protein, protein details: His (vector pHMGWA)
[1] = shift reduced dose-dependently by unlabelled competitor

Sequence	binding result [1]	binding result
AGGACGGTGGCTGCTTTAGGCGGCTACATATAAATGTCTT (double strand) [P2 probe (PtrACS1 promoter GCC-box)]	binds	–
AGGACGGTGGCTGCTTTAGGTGGCTACATATAAATGTCTT (double strand) [mP2 probe]	–	no binding
CCATCCAATTCCAACGAGCCGCCAGCTTATAATAACAACA (double strand) [P1 probe (PtrGSTU17 promoter GCC-box)]	binds	–
CCATCCAATTCCAACGATCCTCCAGCTTATAATAACAACA (double strand) [mP1 probe]	–	no binding
